This passage reports binding results from PMC6010621.

The chains behind the UniProt entries cited, without tags or fusion partners. Where a name states a change or a piece, a line headed by the entry shows the natural chain unless it says otherwise.
UniProt Q57ZF1: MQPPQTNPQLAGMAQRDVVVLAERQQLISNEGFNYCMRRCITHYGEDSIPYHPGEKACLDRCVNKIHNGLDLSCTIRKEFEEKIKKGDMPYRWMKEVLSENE
UniProt Q382K7: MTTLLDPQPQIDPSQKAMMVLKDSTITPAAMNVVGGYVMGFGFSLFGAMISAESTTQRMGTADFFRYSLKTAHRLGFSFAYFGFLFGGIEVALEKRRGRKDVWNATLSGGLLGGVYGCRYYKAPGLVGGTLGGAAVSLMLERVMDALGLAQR
UniProt Q57XQ4: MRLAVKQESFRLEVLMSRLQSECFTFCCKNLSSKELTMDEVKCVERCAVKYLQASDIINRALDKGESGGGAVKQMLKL

The target of this assay is TbTim10-Myc (Trypanosoma brucei) (UniProt Q57ZF1). Kind of assay: affinity purification with mass spectrometry; anti-myc agarose immunoprecipitate from digitonin-solubilized TbTim10-Myc mitochondrial extract (co-IP protocol scaled up 5-fold), in-gel trypsin digestion, LC-MS/MS; parental wild-type cells as control.

No constants are given. Whether binding was seen depends on the method and setting. In cells and extracts the contact can be indirect. A yes stands for co-enrichment or nearness to the bait. Other partners may have been found.

Regarding “T. brucei Tim17 (TbTim17) (from UniProt Q382K7)”, the binding entry was “binds”. For “TbTim9 (endogenous) (from UniProt Q57XQ4)”, the binding result is recorded as “binds”.
